In PubChem BioAssay AID330 (DTP/NCI, 2004):
The list shows only some results of the screen, not a fair sample: it is rich in T/C values a quarter to a half above the control, in often repeated tests (any T/C) and in doses without a T/C. Other doses and runs of a compound stand elsewhere. T/C gives the treated animals as a percentage of the vehicle group. Some doses have a count of surviving animals in place of a T/C: the source files T/C as zero there, which appears to mark a toxic dose or a test without result, not a measured value. Some survivor counts are full or nearly so, which does not show that the dose was tolerated: survival well below the control is almost never listed, so the zero probably covers shortened survival too. Survivors were counted at the toxicity check, usually on the fifth day, unless a day is given; later deaths do not show. Schedules are NCI's codes, read here as Q, the interval in days (D) or hours (H), X, the number of doses. Some structures stand for samples that the source files as different forms (salt, stereo form or complex); doses refer to the form tested. Some entries were tested several times; the values are given in rising order. Counts like (3×) give the number of equal values in this list. Where survival is the endpoint, the PubChem record calls one and a half times the control and up active, and a quarter to a half above the control has no call in these data; cut-offs in other NCI protocols can differ. Some T/C values carry the count of animals alive at the toxicity check (mostly the fifth day); where none is given, no animal had died by that day.

Tested on: P388 leukemia ip, CD2F1 mice, survival T/C
Experiment: NCI In Vivo Anticancer Drug Screen. Data for tumor model P388 Leukemia (intraperitoneal) in CD2F1 (CDF1) mice
Settings: T/C endpoint: median survival time, higher T/C = longer survival
[1] = dose: 2.0 mg/kg/injection, schedule: Q01DX009 (ip), vehicle: water
[2] = dose: 100.0 mg/kg/injection, schedule: Q01DX005 (ip), vehicle: Klucel (hydroxypropylcellulose) (HPC)
[3] = dose: 200.0 mg/kg/injection, schedule: Q01DX005 (ip), vehicle: Klucel (hydroxypropylcellulose) (HPC)
[4] = dose: 100.0 mg/kg/injection, schedule: Q01DX001 (ip), vehicle: Klucel (hydroxypropylcellulose) (HPC)
[5] = dose: 200.0 mg/kg/injection, schedule: Q01DX001 (ip), vehicle: Klucel (hydroxypropylcellulose) (HPC)
[6] = dose: 12.5 mg/kg/injection, schedule: Q01DX009 (ip), vehicle: saline
[7] = dose: 25.0 mg/kg/injection, schedule: Q01DX009 (ip), vehicle: saline
[8] = dose: 25.0 mg/kg/injection, schedule: Q01DX009 (ip), vehicle: water
[9] = dose: 50.0 mg/kg/injection, schedule: Q01DX009 (ip), vehicle: water
[10] = dose: 50.0 mg/kg/injection, schedule: Q01DX009 (ip), vehicle: saline with Tween-80
[11] = dose: 400.0 mg/kg/injection, schedule: Q01DX009 (ip), vehicle: Klucel (hydroxypropylcellulose) (HPC)
[12] = dose: 50.0 mg/kg/injection, schedule: Q01DX009 (ip), vehicle: Klucel (hydroxypropylcellulose) (HPC)
[13] = dose: 100.0 mg/kg/injection, schedule: Q01DX009 (ip), vehicle: Klucel (hydroxypropylcellulose) (HPC)
[14] = dose: 200.0 mg/kg/injection, schedule: Q01DX009 (ip), vehicle: Klucel (hydroxypropylcellulose) (HPC)
[15] = dose: 200.0 mg/kg/injection, schedule: Q01DX009 (ip), vehicle: water

## CCC1=C[C@H]2CN(CCc3c([nH]c4ccccc34)[C@@](C(=O)OC)(c3cc4c(cc3OC)N(C)[C@H]3[C@@](O)(C(=O)OC)[C@H](OC(C)=O)[C@]5(CC)C=CCN6CC[C@]43[C@@H]65)C2)C1
dose: 0.05 mg/kg/injection, schedule: Q01DX009 (ip), vehicle: saline
  T/C: 127 % of control
dose: 0.1 mg/kg/injection, schedule: Q01DX009 (ip), vehicle: saline
  T/C: 125 % of control [5 of 6 alive]
dose: 0.25 mg/kg/injection, schedule: Q01DX009 (ip), vehicle: water
  T/C: 130 % of control
dose: 0.5 mg/kg/injection, schedule: Q01DX009 (ip), vehicle: water
  T/C: 120, 141, 146, 158 % of control
dose: 1.0 mg/kg/injection, schedule: Q01DX009 (ip), vehicle: water
  T/C: 118, 142, 187, 201 % of control
dose: 1.6 mg/kg/injection, schedule: Q01DX009 (ip), vehicle: saline
  survivor count: 6 of 6
[1]
  T/C: 90, 114, 173 % of control
  survivor count: 6 of 6
dose: 3.2 mg/kg/injection, schedule: Q01DX009 (ip), vehicle: saline
  survivor count: 6 of 6
dose: 4.0 mg/kg/injection, schedule: Q01DX009 (ip), vehicle: water
  survivor count: 4 of 6
dose: 6.4 mg/kg/injection, schedule: Q01DX009 (ip), vehicle: saline
  survivor count: 2 of 6
dose: 8.0 mg/kg/injection, schedule: Q01DX009 (ip), vehicle: water
  survivor count: 0 of 6 and 1 of 6
dose: 12.8 mg/kg/injection, schedule: Q01DX009 (ip), vehicle: saline
  survivor count: 0 of 6

## Cc1c(C#N)c(N)nc2c(C(N)=O)nsc12
[2]
  survivor count: 6 of 6
[3]
  survivor count: 6 of 6

## Cc1nc(N)[nH]c(=O)c1N
[3]
  survivor count: 0 of 5

## OC1(c2ccccc2)C(c2ccccc2)=C(c2ccccc2)C(c2ccc(CCc3ccc(C4=C(c5ccccc5)C(O)(c5ccccc5)C(c5ccccc5)=C4c4ccccc4)cc3)cc2)=C1c1ccccc1 (configuration not stated)
[4]
  survivor count: 6 of 6
[5]
  survivor count: 6 of 6

## CN(C)CCCNc1c2ccc(Cl)cc2nc2ccc(O)cc12
dose: 3.13 mg/kg/injection, schedule: Q01DX009 (ip), vehicle: saline
  T/C: 133 % of control
dose: 6.25 mg/kg/injection, schedule: Q01DX009 (ip), vehicle: saline
  T/C: 144 % of control
[6]
  T/C: 135 % of control
[7]
  survivor count: 6 of 6

## COc1ccc(C)cc1NC(=S)C#N
dose: 240.0 mg/kg/injection, schedule: Q01DX005 (ip), vehicle: saline with Tween-80
  survivor count: 0 of 6

## COc1cccc2c1C(=O)c1c(O)c3c(c(O)c1C2=O)C[C@@](O)(c1csc(N)n1)C[C@@H]3OC1CC(N)C(O)C(C)O1 (some centres not stated)
dose: 1.56 mg/kg/injection, schedule: Q01DX009 (ip), vehicle: water
  T/C: 137 % of control
dose: 3.13 mg/kg/injection, schedule: Q01DX009 (ip), vehicle: water, evaluated on day 30
  T/C: 140 % of control
dose: 3.13 mg/kg/injection, schedule: Q01DX009 (ip), vehicle: water, evaluated on day 45
  T/C: 145 % of control
[8]
  T/C: 137 % of control
dose: 25.0 mg/kg/injection, schedule: Q04DX003 (ip), vehicle: water
  T/C: 125 % of control
[9]
  survivor count: 5 of 6
dose: 50.0 mg/kg/injection, schedule: Q04DX003 (ip), vehicle: water, evaluated on day 30
  T/C: 125 % of control
dose: 50.0 mg/kg/injection, schedule: Q04DX003 (ip), vehicle: water, evaluated on day 35
  T/C: 127 % of control
dose: 100.0 mg/kg/injection, schedule: Q04DX003 (ip), vehicle: water
  T/C: 125 % of control

## CCN(CC)CCCC(C)Nc1cc(OC)c2nc(C)cc(OC)c2c1OC (configuration not stated)
[6]
  survivor count: 6 of 6
[7]
  survivor count: 3 of 6
[10]
  survivor count: 2 of 6
dose: 100.0 mg/kg/injection, schedule: Q01DX009 (ip), vehicle: saline with Tween-80
  survivor count: 0 of 6
dose: 200.0 mg/kg/injection, schedule: Q01DX009 (ip), vehicle: saline with Tween-80
  survivor count: 0 of 6

## Clc1cccc(NN=Nc2ccccc2)c1
[11]
  survivor count: 0 of 6

## CCCn1c(O)c(C=N)c(=O)[nH]c1=O
[10]
  survivor count: 6 of 6

## Cc1nnc2c(c(=O)n(C)c(=O)n2C)[n+]1[O-]
dose: 100.0 mg/kg/injection, schedule: Q01DX001 (ip), vehicle: saline
  survivor count: 0 of 6
dose: 200.0 mg/kg/injection, schedule: Q01DX001 (ip), vehicle: saline
  survivor count: 0 of 6
dose: 400.0 mg/kg/injection, schedule: Q01DX001 (ip), vehicle: saline
  survivor count: 0 of 6

## CCN(CC)CCn1c(C)nc2c1C(=O)c1nc(C)n(CCN(CC)CC)c1C2=O
dose: 25.0 mg/kg/injection, schedule: Q01DX005 (ip), vehicle: saline
  survivor count: 6 of 6
dose: 50.0 mg/kg/injection, schedule: Q01DX005 (ip), vehicle: saline
  survivor count: 4 of 6
dose: 100.0 mg/kg/injection, schedule: Q01DX005 (ip), vehicle: saline
  survivor count: 0 of 6
dose: 200.0 mg/kg/injection, schedule: Q01DX005 (ip), vehicle: saline
  survivor count: 0 of 6

## Clc1ccccc1N=Cc1ccc(C=Nc2ccccc2Cl)cc1
[12]
  survivor count: 5 of 6
[13]
  survivor count: 6 of 6
[14]
  survivor count: 6 of 6

## Nc1ncnc(Nc2ccc(C(F)(F)F)cc2)n1
[12]
  survivor count: 6 of 6
[14]
  survivor count: 5 of 6

## COc1ccc(C2CC(=O)C(C(=O)OC3CCCCC3)C2c2ccc(OC)cc2)cc1 (configuration not stated)
[4]
  survivor count: 6 of 6
[5]
  survivor count: 6 of 6
dose: 400.0 mg/kg/injection, schedule: Q01DX001 (ip), vehicle: Klucel (hydroxypropylcellulose) (HPC)
  survivor count: 6 of 6

## COc1cc(/C=C2\C(=O)C=C(C)CC2(C)C)ccc1O
dose: 200.0 mg/kg/injection, schedule: Q04DX003 (ip), vehicle: saline with Tween-80
  survivor count: 6 of 6

## c1ccc2c(c1)oc1cc3c(cc12)ncc1cccn13
dose: 25.0 mg/kg/injection, schedule: Q01DX005 (ip), vehicle: saline with Tween-80
  survivor count: 5 of 5
dose: 50.0 mg/kg/injection, schedule: Q01DX005 (ip), vehicle: saline with Tween-80
  survivor count: 5 of 5
dose: 100.0 mg/kg/injection, schedule: Q01DX005 (ip), vehicle: saline with Tween-80
  survivor count: 5 of 5
dose: 200.0 mg/kg/injection, schedule: Q01DX005 (ip), vehicle: saline with Tween-80
  survivor count: 4 of 5

## CC(C)(O)c1cccc2c(C(C)(C)O)cccc12
[13]
  survivor count: 6 of 6

## OCC1OC2OC3C(CO)OC(OC4C(CO)OC(OC5C(CO)OC(OC6C(CO)OC(OC7C(CO)OC(OC1C(O)C2O)C(O)C7O)C(O)C6O)C(O)C5O)C(O)C4O)C(O)C3O (configuration not stated) (tested in a mixture with another compound)
[8]
  T/C: 133 % of control
[9]
  T/C: 142 % of control (2×)
dose: 100.0 mg/kg/injection, schedule: Q01DX009 (ip), vehicle: water
  T/C: 129 % of control
[15]
  T/C: 134 % of control
  survivor count: 5 of 6 and 6 of 6
dose: 400.0 mg/kg/injection, schedule: Q01DX009 (ip), vehicle: water
  survivor count: 0 of 6

## CC(=O)O.CC(=O)O.CC[OH+]CC[OH+]CC[OH+]C1CCCC2CCC[N-]C21.[Zn] (configuration not stated)
dose: 50.0 mg/kg/injection, schedule: Q01DX005 (ip), vehicle: Klucel (hydroxypropylcellulose) (HPC), evaluated on day 20
  T/C: 118 and 120 % of control
dose: 50.0 mg/kg/injection, schedule: Q01DX005 (ip), vehicle: Klucel (hydroxypropylcellulose) (HPC), evaluated on day 30
  T/C: 110 and 114 % of control [5 of 6 alive]
[2]
  survivor count: 0 of 6 (2×)
[3]
  survivor count: 0 of 6

## Cc1ccc(Nc2ccc(Nc3ccc(C)cc3)c3c2C(=O)c2cc(Cl)c(Cl)cc2C3=O)cc1
[14]
  T/C: 129 % of control [4 of 6 alive]
[11]
  survivor count: 3 of 6
